According to the supplement of paper PMC10849652:
This is one part of the list.

Amino acid sequences for entries named in this document (tags omitted). A change or cut given only in a name is not applied to a line headed by its entry.
UniProt Q13263: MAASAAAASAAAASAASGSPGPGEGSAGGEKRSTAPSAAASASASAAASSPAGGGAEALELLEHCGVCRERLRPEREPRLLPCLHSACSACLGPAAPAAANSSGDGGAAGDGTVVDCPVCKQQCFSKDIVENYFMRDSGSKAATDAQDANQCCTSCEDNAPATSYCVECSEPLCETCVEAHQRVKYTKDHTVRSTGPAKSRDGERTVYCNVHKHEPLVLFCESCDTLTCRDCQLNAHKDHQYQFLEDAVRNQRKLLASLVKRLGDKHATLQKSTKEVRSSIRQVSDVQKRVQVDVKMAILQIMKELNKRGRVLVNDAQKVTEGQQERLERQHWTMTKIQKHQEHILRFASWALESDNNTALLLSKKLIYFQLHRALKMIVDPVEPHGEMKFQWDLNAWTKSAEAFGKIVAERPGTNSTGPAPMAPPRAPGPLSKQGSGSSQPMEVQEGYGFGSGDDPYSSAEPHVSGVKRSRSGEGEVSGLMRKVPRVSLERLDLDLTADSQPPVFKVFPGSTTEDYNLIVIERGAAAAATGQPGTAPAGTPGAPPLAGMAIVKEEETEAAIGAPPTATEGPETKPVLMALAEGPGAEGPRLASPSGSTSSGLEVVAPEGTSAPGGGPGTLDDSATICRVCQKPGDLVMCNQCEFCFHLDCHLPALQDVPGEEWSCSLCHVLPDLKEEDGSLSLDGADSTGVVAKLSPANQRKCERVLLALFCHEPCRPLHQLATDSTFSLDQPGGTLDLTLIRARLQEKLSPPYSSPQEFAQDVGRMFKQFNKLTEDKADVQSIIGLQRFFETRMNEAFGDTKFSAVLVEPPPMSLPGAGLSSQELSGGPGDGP
UniProt Q9NXH9: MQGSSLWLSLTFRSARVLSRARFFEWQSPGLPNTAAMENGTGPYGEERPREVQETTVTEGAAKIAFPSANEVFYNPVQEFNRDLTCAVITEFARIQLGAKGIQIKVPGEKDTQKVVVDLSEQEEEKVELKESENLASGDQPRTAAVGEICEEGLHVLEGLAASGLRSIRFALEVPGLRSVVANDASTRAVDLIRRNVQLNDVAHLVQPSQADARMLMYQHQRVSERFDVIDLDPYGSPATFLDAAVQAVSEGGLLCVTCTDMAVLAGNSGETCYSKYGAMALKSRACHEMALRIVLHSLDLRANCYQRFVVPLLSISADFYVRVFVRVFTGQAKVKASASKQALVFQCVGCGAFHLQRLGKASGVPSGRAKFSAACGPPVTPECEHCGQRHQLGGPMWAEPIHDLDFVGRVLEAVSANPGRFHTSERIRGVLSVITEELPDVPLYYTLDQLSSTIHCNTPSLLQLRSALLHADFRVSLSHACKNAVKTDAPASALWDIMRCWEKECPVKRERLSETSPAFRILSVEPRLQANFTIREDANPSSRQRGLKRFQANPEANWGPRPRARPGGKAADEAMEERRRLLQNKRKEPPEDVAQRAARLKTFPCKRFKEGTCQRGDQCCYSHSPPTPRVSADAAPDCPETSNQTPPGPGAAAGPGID
UniProt Q15642: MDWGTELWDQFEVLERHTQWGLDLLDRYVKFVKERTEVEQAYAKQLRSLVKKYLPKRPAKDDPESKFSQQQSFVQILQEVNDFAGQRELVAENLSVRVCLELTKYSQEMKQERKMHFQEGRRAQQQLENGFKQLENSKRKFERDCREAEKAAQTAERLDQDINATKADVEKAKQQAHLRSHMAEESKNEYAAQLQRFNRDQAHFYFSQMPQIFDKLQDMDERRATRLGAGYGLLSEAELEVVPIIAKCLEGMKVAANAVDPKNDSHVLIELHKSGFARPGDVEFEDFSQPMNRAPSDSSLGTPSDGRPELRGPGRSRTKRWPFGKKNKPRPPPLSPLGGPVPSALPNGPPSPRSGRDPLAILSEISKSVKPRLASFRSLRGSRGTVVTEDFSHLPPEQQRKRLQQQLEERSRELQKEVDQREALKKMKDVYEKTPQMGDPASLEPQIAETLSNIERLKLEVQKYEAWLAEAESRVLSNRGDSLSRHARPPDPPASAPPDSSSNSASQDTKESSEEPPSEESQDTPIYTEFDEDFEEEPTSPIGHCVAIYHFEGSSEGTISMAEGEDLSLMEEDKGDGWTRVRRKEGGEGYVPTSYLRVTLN
UniProt Q13049: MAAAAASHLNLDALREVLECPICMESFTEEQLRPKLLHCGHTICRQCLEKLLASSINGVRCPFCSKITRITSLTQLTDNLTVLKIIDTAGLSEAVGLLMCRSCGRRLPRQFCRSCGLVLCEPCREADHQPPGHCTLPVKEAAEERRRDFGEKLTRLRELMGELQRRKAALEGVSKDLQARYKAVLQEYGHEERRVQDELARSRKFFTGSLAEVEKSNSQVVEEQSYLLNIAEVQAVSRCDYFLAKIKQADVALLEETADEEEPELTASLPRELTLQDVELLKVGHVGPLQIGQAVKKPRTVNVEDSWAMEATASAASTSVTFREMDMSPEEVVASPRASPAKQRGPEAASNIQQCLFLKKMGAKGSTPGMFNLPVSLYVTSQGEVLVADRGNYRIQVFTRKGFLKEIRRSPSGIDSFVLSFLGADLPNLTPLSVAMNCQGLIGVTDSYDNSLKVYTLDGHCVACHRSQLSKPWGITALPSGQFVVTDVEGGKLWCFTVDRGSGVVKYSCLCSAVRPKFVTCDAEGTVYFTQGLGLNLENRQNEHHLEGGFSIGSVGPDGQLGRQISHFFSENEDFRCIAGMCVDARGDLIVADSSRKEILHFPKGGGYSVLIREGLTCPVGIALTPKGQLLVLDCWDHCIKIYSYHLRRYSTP
UniProt Q99816: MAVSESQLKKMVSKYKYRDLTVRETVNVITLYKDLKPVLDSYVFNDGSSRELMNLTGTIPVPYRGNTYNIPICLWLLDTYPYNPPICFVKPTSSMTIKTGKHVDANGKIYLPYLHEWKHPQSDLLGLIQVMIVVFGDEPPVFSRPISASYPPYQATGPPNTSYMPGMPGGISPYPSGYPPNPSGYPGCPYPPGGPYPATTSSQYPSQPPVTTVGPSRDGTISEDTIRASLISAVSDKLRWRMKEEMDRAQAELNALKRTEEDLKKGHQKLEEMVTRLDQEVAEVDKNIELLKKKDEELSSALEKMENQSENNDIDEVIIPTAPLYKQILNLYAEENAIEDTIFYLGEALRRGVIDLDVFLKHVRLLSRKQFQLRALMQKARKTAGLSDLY
UniProt Q15654: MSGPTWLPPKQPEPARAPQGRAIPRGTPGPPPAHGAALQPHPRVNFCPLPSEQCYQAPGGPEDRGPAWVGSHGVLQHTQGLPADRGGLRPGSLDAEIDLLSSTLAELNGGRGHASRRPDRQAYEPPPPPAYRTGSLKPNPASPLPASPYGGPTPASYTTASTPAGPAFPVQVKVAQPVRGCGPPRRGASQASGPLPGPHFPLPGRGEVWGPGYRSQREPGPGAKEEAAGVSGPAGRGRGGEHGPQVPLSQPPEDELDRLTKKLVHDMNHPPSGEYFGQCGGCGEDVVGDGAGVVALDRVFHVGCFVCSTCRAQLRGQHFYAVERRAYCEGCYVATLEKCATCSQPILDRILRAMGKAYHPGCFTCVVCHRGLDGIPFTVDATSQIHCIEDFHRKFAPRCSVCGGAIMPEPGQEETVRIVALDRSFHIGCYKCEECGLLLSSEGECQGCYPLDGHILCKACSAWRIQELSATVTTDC
UniProt Q14166: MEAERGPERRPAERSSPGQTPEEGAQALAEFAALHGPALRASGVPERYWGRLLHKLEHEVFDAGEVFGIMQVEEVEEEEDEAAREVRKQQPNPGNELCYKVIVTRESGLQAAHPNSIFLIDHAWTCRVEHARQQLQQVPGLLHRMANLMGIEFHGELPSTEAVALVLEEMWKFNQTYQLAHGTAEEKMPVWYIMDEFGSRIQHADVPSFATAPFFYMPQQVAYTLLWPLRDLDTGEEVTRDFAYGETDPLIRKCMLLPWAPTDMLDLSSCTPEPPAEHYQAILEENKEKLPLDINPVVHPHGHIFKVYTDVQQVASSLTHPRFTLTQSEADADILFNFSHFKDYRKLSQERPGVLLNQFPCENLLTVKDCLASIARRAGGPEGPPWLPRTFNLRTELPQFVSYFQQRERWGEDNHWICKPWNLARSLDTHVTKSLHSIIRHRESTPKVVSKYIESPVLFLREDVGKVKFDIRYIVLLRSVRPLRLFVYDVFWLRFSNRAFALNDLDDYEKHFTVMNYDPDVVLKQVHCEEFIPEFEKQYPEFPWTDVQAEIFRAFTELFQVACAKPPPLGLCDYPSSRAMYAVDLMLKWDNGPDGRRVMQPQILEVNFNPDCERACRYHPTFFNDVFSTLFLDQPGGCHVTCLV
UniProt Q9BUZ4: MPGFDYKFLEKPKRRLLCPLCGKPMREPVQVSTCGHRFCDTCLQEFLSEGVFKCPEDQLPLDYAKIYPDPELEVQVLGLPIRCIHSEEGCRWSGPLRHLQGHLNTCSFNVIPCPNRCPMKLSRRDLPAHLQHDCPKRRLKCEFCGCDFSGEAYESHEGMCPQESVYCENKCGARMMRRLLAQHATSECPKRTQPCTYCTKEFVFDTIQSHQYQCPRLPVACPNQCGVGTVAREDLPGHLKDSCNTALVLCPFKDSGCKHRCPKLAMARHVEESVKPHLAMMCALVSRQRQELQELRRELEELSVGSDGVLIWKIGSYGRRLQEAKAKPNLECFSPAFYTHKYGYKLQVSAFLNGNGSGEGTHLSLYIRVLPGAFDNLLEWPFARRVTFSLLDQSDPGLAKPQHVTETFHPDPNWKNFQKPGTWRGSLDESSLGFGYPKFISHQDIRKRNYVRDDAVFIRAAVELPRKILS
UniProt Q9BSV6: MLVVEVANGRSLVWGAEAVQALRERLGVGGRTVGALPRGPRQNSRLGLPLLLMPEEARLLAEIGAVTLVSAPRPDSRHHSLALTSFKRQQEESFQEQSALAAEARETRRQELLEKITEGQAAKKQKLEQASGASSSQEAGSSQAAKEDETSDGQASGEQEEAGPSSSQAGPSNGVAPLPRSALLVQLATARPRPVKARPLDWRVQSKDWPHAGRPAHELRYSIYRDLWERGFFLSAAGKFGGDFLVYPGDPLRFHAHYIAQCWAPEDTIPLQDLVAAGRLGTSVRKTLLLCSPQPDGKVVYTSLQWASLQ
UniProt O43617, whole entry, looked up: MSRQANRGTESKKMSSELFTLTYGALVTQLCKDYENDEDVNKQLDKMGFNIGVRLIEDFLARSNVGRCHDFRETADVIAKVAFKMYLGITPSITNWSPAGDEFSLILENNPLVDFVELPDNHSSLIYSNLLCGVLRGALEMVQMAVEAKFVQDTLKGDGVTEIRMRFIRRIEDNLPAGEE
UniProt P36406: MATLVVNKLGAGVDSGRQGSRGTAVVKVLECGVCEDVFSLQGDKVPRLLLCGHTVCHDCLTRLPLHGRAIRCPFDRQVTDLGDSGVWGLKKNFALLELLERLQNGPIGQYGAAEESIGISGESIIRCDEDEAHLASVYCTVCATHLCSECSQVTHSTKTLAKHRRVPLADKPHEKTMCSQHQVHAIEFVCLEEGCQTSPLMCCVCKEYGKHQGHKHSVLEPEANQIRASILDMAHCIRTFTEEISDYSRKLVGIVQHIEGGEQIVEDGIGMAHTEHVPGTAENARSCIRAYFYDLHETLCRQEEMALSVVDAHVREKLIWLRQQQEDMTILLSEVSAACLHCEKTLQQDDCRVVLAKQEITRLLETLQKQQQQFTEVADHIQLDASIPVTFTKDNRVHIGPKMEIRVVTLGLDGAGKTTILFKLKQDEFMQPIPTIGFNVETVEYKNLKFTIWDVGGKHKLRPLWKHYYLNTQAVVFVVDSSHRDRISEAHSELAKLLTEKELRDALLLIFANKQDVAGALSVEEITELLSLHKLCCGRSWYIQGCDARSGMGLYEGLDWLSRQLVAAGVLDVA
UniProt O14545: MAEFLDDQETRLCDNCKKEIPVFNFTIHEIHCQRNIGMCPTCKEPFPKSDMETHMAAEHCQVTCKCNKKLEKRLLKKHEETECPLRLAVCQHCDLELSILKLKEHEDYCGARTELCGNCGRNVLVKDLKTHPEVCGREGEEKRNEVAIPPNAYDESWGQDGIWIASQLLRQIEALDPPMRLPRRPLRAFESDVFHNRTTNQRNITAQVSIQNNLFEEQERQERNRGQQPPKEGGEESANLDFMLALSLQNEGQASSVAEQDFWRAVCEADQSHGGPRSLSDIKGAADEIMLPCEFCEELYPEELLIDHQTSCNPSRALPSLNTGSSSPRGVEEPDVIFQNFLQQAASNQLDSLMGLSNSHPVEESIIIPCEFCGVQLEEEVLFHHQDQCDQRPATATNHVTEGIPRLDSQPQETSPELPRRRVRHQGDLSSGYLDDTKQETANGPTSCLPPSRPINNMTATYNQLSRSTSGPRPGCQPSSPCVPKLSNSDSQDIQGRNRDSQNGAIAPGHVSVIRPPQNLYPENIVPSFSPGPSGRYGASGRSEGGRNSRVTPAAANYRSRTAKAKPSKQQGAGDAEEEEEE
UniProt Q86SZ2: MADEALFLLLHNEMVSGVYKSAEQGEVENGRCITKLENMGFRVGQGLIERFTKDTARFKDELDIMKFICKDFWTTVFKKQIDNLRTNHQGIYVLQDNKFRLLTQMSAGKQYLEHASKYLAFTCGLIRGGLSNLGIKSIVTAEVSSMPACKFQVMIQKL

compound: CC1=C(C=C(C=C1)NC(=O)C2=CC(=CC=C2)N(C)C)NC(=O)C3=CC=C(C=C3)O; test: log2 fold change, soluble protein after heating vs DMSO (PISA); higher = thermal stabilisation; K562 lysate, 10 uM; active = over 0.2 and 3.5 SD of the protein, either way, in both replicates (recomputed)
Summary of the method: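 Soluble protein was defined as the supernatant remaining after 21,000xg for 90 min, following pooling of heated aliquots and adjustment to 0.5% NP-40 at 4°C. Before that, crude K562 extract at 1 mg/mL protein in PBS pH 7.4 with 1 mM MgCl2 was treated with 10 μM compound for 30 min and heated for 3 min across 48°C-58°C. Quantification used TMTpro 16plex LC-MS/MS with channel sums equalised, and values are log-two fold changes in thermal stability relative to solvent controls from duplicates.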

Target | log2 fold change
TRIM28 (UniProt Q13263) | inactive: -0.001
TRMT1 (UniProt Q9NXH9) | inactive: 0.02
TRIM44 (UniProt Q96DX7) | inactive: 0.022
TRAPPC6A isoform 2 (UniProt O75865) | inactive: 0.004
TRIP10 isoform 2 (UniProt Q15642) | inactive: -0.111
TRIM32 (UniProt Q13049) | inactive: 0.277
TSG101 (UniProt Q99816) | inactive: 0.022
TSTA3 (UniProt Q13630) | inactive: -0.017
TRIP6 (UniProt Q15654) | inactive: 0
TTLL12 (UniProt Q14166) | inactive: 0.031
TRAPPC8 (UniProt Q9Y2L5) | inactive: 0.014
TRAF4 (UniProt Q9BUZ4) | inactive: 0.023
TSEN34 (UniProt Q9BSV6) | inactive: -0.015
TRAPPC3 (UniProt O43617) | inactive: 0.031
TRIM23 (UniProt P36406) | inactive: -0.22
TRAPPC9 isoform 2 (UniProt Q96Q05) | inactive: -0.016
TRUB1 (UniProt Q8WWH5) | inactive: -0.007
TRIP4 (UniProt Q15650) | inactive: 0.073
TRAFD1 (UniProt O14545) | inactive: -0.031
TRAPPC6B (UniProt Q86SZ2) | inactive: -0.011

Reprinted at random: 2 entries already listed, in no set order.
Target | log2 fold change
TSEN34 (UniProt Q9BSV6) | inactive: -0.015
TRIM28 (UniProt Q13263) | inactive: -0.001
